In the supplement of paper PMC7661543:
± gives the standard deviation of the averaged measurements. The effect of the compound repeats well; differences between the knockouts mostly do not.

Test system: MDA-MB-231
Assay: relative cell number vs DMSO control (72 h) (% of DMSO); higher = less growth inhibition (more cells)
Description: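 QMAP-Seq: a pool of 5 breast cancer cell lines (ZR-75-1, SKBR3, HCC-38, MDA-MB-231, BT-20), each carrying 12 doxycycline-inducible Cas9 sgRNA perturbations (11 knockouts plus non-targeting sgNT), was treated with compounds for 72 h at four 10-fold doses (10 nM-10 uM or 1 nM-1 uM range). Barcodes were amplified and sequenced, and cell number was interpolated from 293T spike-in standard curves. The result is expressed as % of the median of DMSO wells. Two biological replicates.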

CCC[C@H](NC(=O)/C(C#N)=C/c1cccc(Br)n1)c1ccccc1 [WP1130]
Details | relative cell number
sgRNA knockout: sgATF3, 10 nM | 89 ± 10
sgRNA knockout: sgATF3, 100 nM | 84.4 ± 15
sgRNA knockout: sgATF3, 1000 nM | 120 ± 22
sgRNA knockout: sgATF3, 10000 nM | 6.34 ± 1.3
sgRNA knockout: sgATF4, 10 nM | 115 ± 18
sgRNA knockout: sgATF4, 100 nM | 60.98 ± 0.57
sgRNA knockout: sgATF4, 1000 nM | 117 ± 5.9
sgRNA knockout: sgATF4, 10000 nM | 13.2 ± 0.93
sgRNA knockout: sgATF6, 10 nM | 101 ± 25
sgRNA knockout: sgATF6, 100 nM | 87.1 ± 16
sgRNA knockout: sgATF6, 1000 nM | 104 ± 12
sgRNA knockout: sgATF6, 10000 nM | 11 ± 1.9
sgRNA knockout: sgATG7, 10 nM | 81.9 ± 18
sgRNA knockout: sgATG7, 100 nM | 79.4 ± 3.5
sgRNA knockout: sgATG7, 1000 nM | 111 ± 2.9
sgRNA knockout: sgATG7, 10000 nM | 6.73 ± 1.3
sgRNA knockout: sgERN1, 10 nM | 83.1 ± 20
sgRNA knockout: sgERN1, 100 nM | 84.5 ± 3.6
sgRNA knockout: sgERN1, 1000 nM | 84.6 ± 2.6
sgRNA knockout: sgERN1, 10000 nM | 6.18 ± 0.45
sgRNA knockout: sgHSF1, 10 nM | 99.8 ± 8.8
sgRNA knockout: sgHSF1, 100 nM | 99.8 ± 16
sgRNA knockout: sgHSF1, 1000 nM | 79 ± 10
sgRNA knockout: sgHSF1, 10000 nM | 6.25 ± 0.074
sgRNA knockout: sgHSF2, 10 nM | 106 ± 2
sgRNA knockout: sgHSF2, 100 nM | 93 ± 22
sgRNA knockout: sgHSF2, 1000 nM | 114.1 ± 0.95
sgRNA knockout: sgHSF2, 10000 nM | 7.84 ± 3.9
sgRNA knockout: sgKEAP1, 10 nM | 97.6 ± 13
sgRNA knockout: sgKEAP1, 100 nM | 83.1 ± 6.4
sgRNA knockout: sgKEAP1, 1000 nM | 76.3 ± 7.4
sgRNA knockout: sgKEAP1, 10000 nM | 8.11 ± 4.2
sgRNA knockout: sgNFE2L2, 10 nM | 83.8 ± 4.4
sgRNA knockout: sgNFE2L2, 100 nM | 98.4 ± 2.2
sgRNA knockout: sgNFE2L2, 1000 nM | 87.4 ± 26
sgRNA knockout: sgNFE2L2, 10000 nM | 6.39 ± 0.93
sgRNA knockout: sgSLC35F2, 10 nM | 108 ± 13
sgRNA knockout: sgSLC35F2, 100 nM | 96.5 ± 10
sgRNA knockout: sgSLC35F2, 1000 nM | 96.2 ± 22
sgRNA knockout: sgSLC35F2, 10000 nM | 8.05 ± 0.6
sgRNA knockout: sgXBP1, 10 nM | 87.3 ± 18
sgRNA knockout: sgXBP1, 100 nM | 98.5 ± 6.2
sgRNA knockout: sgXBP1, 1000 nM | 92.9 ± 5.4
sgRNA knockout: sgXBP1, 10000 nM | 7.71 ± 1.6

CN(C)/N=N/c1[nH]cnc1C(N)=O [Dacarbazine]
Details | relative cell number
sgRNA knockout: sgATF3, 10 nM | 130 ± 11
sgRNA knockout: sgATF3, 100 nM | 115 ± 23
sgRNA knockout: sgATF3, 1000 nM | 79.9 ± 0.99
sgRNA knockout: sgATF3, 10000 nM | 82.9 ± 29
sgRNA knockout: sgATF4, 10 nM | 90.8 ± 3.4
sgRNA knockout: sgATF4, 100 nM | 85.7 ± 9.5
sgRNA knockout: sgATF4, 1000 nM | 92.5 ± 18
sgRNA knockout: sgATF4, 10000 nM | 86.3 ± 23
sgRNA knockout: sgATF6, 10 nM | 102 ± 19
sgRNA knockout: sgATF6, 100 nM | 113 ± 10
sgRNA knockout: sgATF6, 1000 nM | 98.5 ± 14
sgRNA knockout: sgATF6, 10000 nM | 75.2 ± 22
sgRNA knockout: sgATG7, 10 nM | 107 ± 6.5
sgRNA knockout: sgATG7, 100 nM | 94.7 ± 6.7
sgRNA knockout: sgATG7, 1000 nM | 108 ± 0.16
sgRNA knockout: sgATG7, 10000 nM | 80.8 ± 18
sgRNA knockout: sgERN1, 10 nM | 96.1 ± 6.5
sgRNA knockout: sgERN1, 100 nM | 94.6 ± 18
sgRNA knockout: sgERN1, 1000 nM | 94.6 ± 24
sgRNA knockout: sgERN1, 10000 nM | 84.7 ± 26
sgRNA knockout: sgHSF1, 10 nM | 69.8 ± 16
sgRNA knockout: sgHSF1, 100 nM | 84.8 ± 25
sgRNA knockout: sgHSF1, 1000 nM | 75.6 ± 20
sgRNA knockout: sgHSF1, 10000 nM | 74.9 ± 16
sgRNA knockout: sgHSF2, 10 nM | 94.5 ± 5
sgRNA knockout: sgHSF2, 100 nM | 96.1 ± 8.3
sgRNA knockout: sgHSF2, 1000 nM | 92.7 ± 13
sgRNA knockout: sgHSF2, 10000 nM | 69 ± 1.4
sgRNA knockout: sgKEAP1, 10 nM | 92.2 ± 10
sgRNA knockout: sgKEAP1, 100 nM | 115 ± 3.9
sgRNA knockout: sgKEAP1, 1000 nM | 108 ± 24
sgRNA knockout: sgKEAP1, 10000 nM | 86.5 ± 18
sgRNA knockout: sgNFE2L2, 10 nM | 98.26 ± 0.45
sgRNA knockout: sgNFE2L2, 100 nM | 107 ± 24
sgRNA knockout: sgNFE2L2, 1000 nM | 108 ± 14
sgRNA knockout: sgNFE2L2, 10000 nM | 83.3 ± 12
sgRNA knockout: sgSLC35F2, 10 nM | 98.1 ± 34
sgRNA knockout: sgSLC35F2, 100 nM | 82.3 ± 2.6
sgRNA knockout: sgSLC35F2, 1000 nM | 92.7 ± 7.3
sgRNA knockout: sgSLC35F2, 10000 nM | 80.8 ± 1.2
sgRNA knockout: sgXBP1, 10 nM | 100 ± 13
sgRNA knockout: sgXBP1, 100 nM | 84.4 ± 2.2
sgRNA knockout: sgXBP1, 1000 nM | 97 ± 7.9
sgRNA knockout: sgXBP1, 10000 nM | 92.7 ± 8.7
